Some of the results follow. These are raw signals, not scaled to a control.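 In the initial screen, polymyxin B was used at a concentration that permeabilizes Salmonella's outer membrane but not its inner membrane. Maximum growth was set by DMSO wells with or without polymyxin B. Since plates varied, data were ranked per plate, and compounds giving the lowest OD600 advanced as hits.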
Test system: Salmonella enterica serovar Typhimurium SL1344
Assay: bacterial growth OD600 after 18 h with compound and polymyxin B; higher = more bacterial growth (less inhibition)
Conditions: 50 µM, Mueller-Hinton broth

| Structure (SMILES) | bacterial growth OD600 (polymyxin B 0.75 µg/mL) | bacterial growth OD600 (polymyxin B 1 µg/mL) |
| --- | --- | --- |
| Cc1cc(C)n(Cc2cc(C(=O)NCCc3cscn3)n[nH]2)n1 | 0.968 | – |
| CCN1CC(CN(C)Cc2cn(-c3ccc(C)cc3)nc2-c2cccc(C)c2)CC1=O (stereo not given) | – | 0.898 |
| CC1CCN(C(=O)c2cc(CN3CCC(Cc4ccccc4)CC3)on2)CC1 | – | 1.05 |
| CCS(=O)(=O)c1ncc(CN2CCN(c3ccccc3)CC2C)n1CCOC (stereo not given) | – | 1.23 |
| CN(CC1CCOCC1)C(=O)c1cn(C(c2ccccc2)c2ccccc2)nn1 | – | 0.797 |
| CN(C)S(=O)(=O)NCc1cccnc1Oc1ccc(F)cc1F | – | 0.88 |
| Cn1ccnc1C(=O)C1CCCN(Cc2nc(-c3ccc4c(c3)OCO4)no2)C1 (stereo not given) | – | 0.9 |
| COc1ccccc1OCc1cc(C(=O)N2CCCCC2CO)n[nH]1 (stereo not given) | 0.84 | – |
| COc1ccccc1CN1CCC2(CC1)c1ccccc1[C@@H](NC(=O)COc1ccccc1)[C@@H]2OC | 0.849 | – |
| COc1cc(CN2CCCC(C(=O)c3cc(C)c(OC)c(C)c3)C2)cc(OC)c1OC (stereo not given) | – | 0.877 |
| CC(=O)N1CCN(c2ncccc2CNCc2c(F)cccc2Cl)CC1 | 0.851 | – |
| CN(C)c1ncc(CN2CCCC(C(=O)Nc3ccc(-c4ccco4)cc3)C2)s1 (stereo not given) | – | 0.957 |
| Cn1cc(CCC(=O)N2CCCC(CCc3cccc(F)c3)C2)cn1 (stereo not given) | 0.01 | – |
| CCN(CC)C(=O)c1sc2ncnc(NCCCOC)c2c1C | 0.846 | – |
| COc1cc(CN2CCSCC2)ccc1OCC(O)CN1CCCCCC1 (stereo not given) | 0.97 | – |
| CCC(=O)C1CCCN(C(=O)c2cc(NC(=O)c3ccccc3)cc3ncn(C4CCCC4)c23)C1 (stereo not given) | 0.811 | – |
| CCN(Cc1ccccc1)Cc1nc(-c2cccc(OC)c2OC)oc1C | 0.775 | – |
| COc1ccc2c(C)nc(N3CCCC(C(=O)NCCc4ccc(OC)c(OC)c4)C3)nc2c1 (stereo not given) | 0.889 | – |
| CC(c1ccon1)N(C)C(=O)c1coc(COc2cccc(C(F)(F)F)c2)n1 (stereo not given) | – | 0.858 |
| O=C(Cc1ccsc1)N1CCC(C2CCN(c3ncccn3)CC2)C1 (stereo not given) | – | 0.977 |

2 records drawn at random from the list so far, as already listed:

| Structure (SMILES) | bacterial growth OD600 (polymyxin B 0.75 µg/mL) | bacterial growth OD600 (polymyxin B 1 µg/mL) |
| --- | --- | --- |
| Cn1ccnc1C(=O)C1CCCN(Cc2nc(-c3ccc4c(c3)OCO4)no2)C1 (stereo not given) | – | 0.9 |
| CCN(CC)C(=O)c1sc2ncnc(NCCCOC)c2c1C | 0.846 | – |

From the supplement of paper PMC12889115
